Results are given in words; binding and its absence hold for the method and conditions named. Binding seen in cells or lysates may run through a third protein. Some results given as binding are weak or reduced against the parent protein; the word gives no strength.
Target: 3×Flag-USP14 (ubiquitin-specific peptidase 14) (UniProt P54578)
Test: co-IP; Flag-USP14 and HA-JNK co-expressed in HEK293T cells; lysis buffer 20 mM Tris-HCl pH 7.4, 150 mM NaCl, 0.5% Triton X-100; antibody 12 h at 4 °C, protein A/G magnetic beads; western blot

Chains of the proteins cited; added tags and fusions are not shown.
UniProt P54578: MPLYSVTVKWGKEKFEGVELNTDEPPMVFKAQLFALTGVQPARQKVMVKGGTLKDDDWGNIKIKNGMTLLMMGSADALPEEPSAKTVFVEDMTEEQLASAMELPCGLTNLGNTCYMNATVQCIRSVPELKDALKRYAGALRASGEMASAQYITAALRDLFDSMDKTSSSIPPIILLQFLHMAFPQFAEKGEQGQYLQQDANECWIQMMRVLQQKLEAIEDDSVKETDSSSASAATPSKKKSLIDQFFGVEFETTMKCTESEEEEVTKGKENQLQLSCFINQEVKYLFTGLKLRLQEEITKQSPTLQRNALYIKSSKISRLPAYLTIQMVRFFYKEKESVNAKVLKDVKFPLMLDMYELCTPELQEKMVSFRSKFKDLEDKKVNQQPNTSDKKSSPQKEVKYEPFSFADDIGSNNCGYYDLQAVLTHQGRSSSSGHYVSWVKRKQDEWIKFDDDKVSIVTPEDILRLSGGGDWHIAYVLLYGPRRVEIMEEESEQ

3×HA-JNK2 (c-Jun N-terminal kinase 2) (from UniProt P45984 1-424) (enzyme)
binding: binds
